These results are taken from publication doi:10.1101/695577.

This assay has as its target T1, EGFP-ORP5 (UniProt Q9H0X9).
T1 sequence: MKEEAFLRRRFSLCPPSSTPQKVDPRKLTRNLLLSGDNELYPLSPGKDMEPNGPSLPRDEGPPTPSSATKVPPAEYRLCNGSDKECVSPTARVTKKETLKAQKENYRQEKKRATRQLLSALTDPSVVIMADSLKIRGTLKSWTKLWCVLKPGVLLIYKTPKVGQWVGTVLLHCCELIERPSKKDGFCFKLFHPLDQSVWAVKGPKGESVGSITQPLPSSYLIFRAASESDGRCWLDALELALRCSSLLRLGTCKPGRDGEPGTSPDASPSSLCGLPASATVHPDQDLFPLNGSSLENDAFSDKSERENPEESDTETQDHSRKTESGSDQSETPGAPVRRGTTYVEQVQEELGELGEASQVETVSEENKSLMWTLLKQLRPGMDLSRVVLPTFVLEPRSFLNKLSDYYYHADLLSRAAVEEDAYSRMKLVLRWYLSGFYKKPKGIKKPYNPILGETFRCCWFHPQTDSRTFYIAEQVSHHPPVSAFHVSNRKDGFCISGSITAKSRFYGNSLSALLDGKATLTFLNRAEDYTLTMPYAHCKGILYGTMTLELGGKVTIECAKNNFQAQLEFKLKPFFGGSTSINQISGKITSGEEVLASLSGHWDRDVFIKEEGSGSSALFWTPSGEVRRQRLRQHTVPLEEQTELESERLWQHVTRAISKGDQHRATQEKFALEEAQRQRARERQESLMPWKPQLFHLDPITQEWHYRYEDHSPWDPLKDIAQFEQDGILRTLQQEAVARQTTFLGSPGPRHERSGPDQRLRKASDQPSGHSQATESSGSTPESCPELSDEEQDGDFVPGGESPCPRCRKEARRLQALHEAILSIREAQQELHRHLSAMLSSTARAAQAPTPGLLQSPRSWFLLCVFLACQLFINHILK
Briefly: affinity purification with mass spectrometry.

Results are given in words; binding and its absence hold for the method and conditions named. In cells and extracts the contact can be indirect. These calls come from enrichment with a bait or labelling near it, and not all partners need be listed. Tags and fused reporters may be left off the sequences shown.

B1: ORP8 (endogenous) (protein, UniProt Q9BZF1 1-889)
chain: MEGGLADGEPDRTSLLGDSKDVLGPSTVVANSDESQLLTPGKMSQRQGKEAYPTPTKDLHQPSLSPASPHSQGFERGKEDISQNKDESSLSMSKSKSESKLYNGSEKDSSTSSKLTKKESLKVQKKNYREEKKRATKELLSTITDPSVIVMADWLKIRGTLKSWTKLWCVLKPGVLLIYKTQKNGQWVGTVLLNACEIIERPSKKDGFCFKLFHPLEQSIWAVKGPKGEAVGSITQPLPSSYLIIRATSESDGRCWMDALELALKCSSLLKRTMIREGKEHDLSVSSDSTHVTFYGLLRANNLHSGDNFQLNDSEIERQHFKDQDMYSDKSDKENDQEHDESDNEVMGKSEESDTDTSERQDDSYIEPEPVEPLKETTYTEQSHEELGEAGEASQTETVSEENKSLIWTLLKQVRPGMDLSKVVLPTFILEPRSFLDKLSDYYYHADFLSEAALEENPYFRLKKVVKWYLSGFYKKPKGLKKPYNPILGETFRCLWIHPRTNSKTFYIAEQVSHHPPISAFYVSNRKDGFCLSGSILAKSKFYGNSLSAILEGEARLTFLNRGEDYVMTMPYAHCKGILYGTMTLELGGTVNITCQKTGYSAILEFKLKPFLGSSDCVNQISGKLKLGKEVLATLEGHWDSEVFITDKKTDNSEVFWNPTPDIKQWRLIRHTVKFEEQGDFESEKLWQRVTRAINAKDQTEATQEKYVLEEAQRQAARDRKTKNEEWSCKLFELDPLTGEWHYKFADTRPWDPLNDMIQFEKDGVIQTKVKHRTPMVSVPKMKHKPTRQQKKVAKGYSSPEPDIQDSSGSEAQSVKPSTRRKKGIELGDIQSSIESIKQTQEEIKRNIMALRNHLVSSTPATDYFLQQKDYFIIFLLILLQVIINFMFK
For the molecule B1, the binding result is “binds”.

B2: SAM50 (endogenous) (protein, UniProt Q9Y512 1-469)
chain: MGTVHARSLEPLPSSGPDFGGLGEEAEFVEVEPEAKQEILENKDVVVQHVHFDGLGRTKDDIIICEIGDVFKAKNLIEVMRKSHEAREKLLRLGIFRQVDVLIDTCQGDDALPNGLDVTFEVTELRRLTGSYNTMVGNNEGSMVLGLKLPNLLGRAEKVTFQFSYGTKETSYGLSFFKPRPGNFERNFSVNLYKVTGQFPWSSLRETDRGMSAEYSFPIWKTSHTVKWEGVWRELGCLSRTASFAVRKESGHSLKSSLSHAMVIDSRNSSILPRRGALLKVNQELAGYTGGDVSFIKEDFELQLNKQLIFDSVFSASFWGGMLVPIGDKPSSIADRFYLGGPTSIRGFSMHSIGPQSEGDYLGGEAYWAGGLHLYTPLPFRPGQGGFGELFRTHFFLNAGNLCNLNYGEGPKAHIRKLAECIRWSYGAGIVLRLGNIARLELNYCVPMGVQTGDRICDGVQFGAGIRFL
For the molecule B2, the binding entry was “binds”.
